The source of these data is the supplement of paper PMC3682954.

This test concerns RAW 264.7. As to the kind of experiment: cell viability (MTT) relative to vehicle control; higher = more viable cells. Particulars: stimulus: HMGB1 5 ug/ml, 18 h.
The mark [1] stands for this setting: compound concentration: 1 ug/ml.

Structures are written as SMILES. Counter-ions that a name gives are not always drawn. ± gives the standard deviation of the averaged measurements. This is one part of the list. Most values come without repeats; read them as rough.

For orientation: cell viability means a read-out of living cells in per cent, often relative to untreated cells.

With `CN[C@@H]1C[C@@H](c2ccc(Cl)c(Cl)c2)c2ccccc21` [Indatraline hydrochloride], for the setting “compound concentration: 3 uM”, the cell viability worked out at 87.8%.
Consider `COc1ccc2c(c1)[C@]13CCCC[C@@H]1[C@H](C2)N(C)CC3` [d-3-Methoxy-N-methylmorphinan hydrobromide], for which the cell viability (compound concentration: 3 uM) came out at 97%.
`COc1ccc2c(c1)[C@]13CCCC[C@@H]1[C@H](C2)N(C)CC3` [Dextromethorphan]: under “compound concentration: 3 uM”, the cell viability stood at 103%.
For the compound `COc1ccc2c(c1)[C@]13CCCC[C@@H]1[C@H](C2)N(C)CC3` [Dextromethorphan hydrobromide monohydrate], the cell viability (compound concentration: 3 uM) is 103 ± 11%.
In the case of `COc1ccc2c(c1)[C@]13CCCC[C@@H]1[C@H](C2)N(C)CC3`, the cell viability (compound concentration: 3 uM) came to 97.4%.
For the compound `Cc1ccc(S(=O)(=O)N2CC3CC(C2)c2cccc(=O)n2C3)cc1` (stereo not drawn), the cell viability under setting [1] was 110%.
As for `CC1=NCCc2c1[nH]c1cc(O)ccc21` [Harmalol hydrochloride dihydrate], the cell viability (compound concentration: 3 uM) is 113%.
For `CC1=NCCc2c1[nH]c1cc(O)ccc21` [Harmalol], under setting [1], the cell viability worked out at 111%.
Regarding `C=C[C@H]1CN2CC[C@H]1C[C@H]2[C@H](O)c1ccnc2ccccc12`, the cell viability (compound concentration: 3 uM) stood at 99.8%.
`O=C1C=CC(=O)c2c(O)cccc21`: under “compound concentration: 3 uM”, the cell viability was determined as 121%.
Still for that read-out and setting: with `COC[C@H]1OC(=O)c2coc3c2[C@@]1(C)C1=C(C3=O)[C@@H]2CCC(=O)[C@@]2(C)C[C@H]1OC(C)=O` [Wortmannin from Penicillium funiculosum] the figure was 93.5%; with `Clc1cnc(Oc2ccc(Oc3ncc(Cl)cc3Cl)cc2)c(Cl)c1`, 109%; with `Oc1cc2c(cc1O)[C@H]1c3ccccc3CN[C@@H]1CC2`, 86.6%.
With `CNCCc1ccc(O)c(O)c1` [N-Methyldopamine hydrochloride], the cell viability (compound concentration: 3 uM) worked out at 103%.
As for `Oc1ccc(CC2NCCc3cc(O)c(O)cc32)cc1O` (stereo not drawn) [Tetrahydropapaveroline hydrobromide], the cell viability under setting [1] is 92%.
`OC[C@@H]1CCCN2CCCC[C@H]12` [Lupinine]: the cell viability under setting [1] is 97.6%.
Take `COC1=CC2C3Cc4ccc(OC)c(O)c4C2(CCN3C)CC1=O` (stereo not drawn): the cell viability under setting [1] is 83.2%.
With `C=CC[C@]1(O)CC[C@H]2[C@@H]3CCC4=CC(=O)CCC4=C3C=C[C@@]21C`, the cell viability (compound concentration: 3 uM) was 113%.
On to `CC(Cc1ccc(O)cc1)NCC(O)c1cc(O)cc(O)c1` (stereo not drawn), for which the cell viability (compound concentration: 3 uM) is 105%.
Consider `CC(Cc1ccc(O)cc1)NCC(O)c1cc(O)cc(O)c1` (stereo not drawn) [Fenoterol hydrobromide], for which the cell viability (compound concentration: 3 uM) was determined as 101 ± 2%.
On to `C=C1[C@@H]2CC[C@H]3[C@]4(C)C[C@H](O[C@@H]5O[C@H](CO)[C@@H](OS(=O)(=O)O)[C@H](OS(=O)(=O)O)[C@H]5OC(=O)CC(C)C)C[C@@H](C(=O)O)[C@H]4CC[C@]3(C2)[C@@H]1O` [Atractyloside potassium salt], for which the cell viability (compound concentration: 3 uM) was determined as 120%.
In the case of `C=C[C@H]1CN2CC[C@H]1C[C@@H]2[C@@H](O)c1ccnc2ccccc12` [(+)-Cinchonine], the cell viability under setting [1] is 79.4%.
For the compound `C=C[C@H]1CN2CC[C@H]1C[C@@H]2[C@@H](O)c1ccnc2ccccc12`, the cell viability (compound concentration: 3 uM) amounted to 106%.
`Cn1cnc(CCN)c1` [1-Methylhistamine dihydrochloride]: the cell viability was determined as 98.1% under setting [1] and 103% (compound concentration: 3 uM).
Turning to `C1CCc2nnnn2CC1` [Pentylenetetrazole], the cell viability (compound concentration: 3 uM) is 102 ± 4.2%.
On to `C1CCc2nnnn2CC1`, for which the cell viability (compound concentration: 3 uM) was found to be 102%.
As to `CNCC(O)c1ccc(O)cc1` (racemic) [(±)-Synephrine], the cell viability (compound concentration: 3 uM) was 119%.
The same measure, in the same setting: with `CNCC(O)c1ccc(O)cc1` (racemic) [(+,-)-Synephrine] the figure was 95%; with `CN(N=O)c1ccc(O)c(O)c1` [Me-3,4-dephostatin], 121%.
Still for that read-out and setting: in the case of `CCCN1CCC[C@@H]2Cc3nc(N)ncc3C[C@H]21` [Quinelorane dihydrochloride] it was 103%; in that of `C[C@]12CC[C@@H](O)C[C@@H]1CC[C@@H]1[C@@H]2CC[C@]2(C)C(=O)CC[C@@H]12` [Androsterone], 117%.
Regarding `CC1=CC(=O)C2=C(C)C[C@H](O)[C@@H]3[C@H](OC(=O)[C@H]3C)[C@H]12` [Austricine], under setting [1], the cell viability was determined as 96%.
As for `COP(=S)(OC)Oc1ccc(SC)c(C)c1`, the cell viability (compound concentration: 3 uM) was determined as 111%.
Turning to `O=c1[nH]c2ccccc2n1CCCN1CCC(n2c(=O)[nH]c3cc(Cl)ccc32)CC1` [Domperidone], the cell viability (compound concentration: 3 uM) came out at 104 ± 11%.
`O=C([O-])c1ccccc1-c1c2cc(Br)c(=O)cc-2oc2[c]([Hg+])c([O-])c(Br)cc12.[Na+].[Na+].[OH-]` [Merbromin]: the cell viability (compound concentration: 3 uM) was found to be 115%.
Same read-out and setting: in the case of `O=C([O-])c1ccccc1-c1c2cc(Br)c(=O)cc-2oc2[c]([Hg+])c([O-])c(Br)cc12.[Na+].[Na+].[OH-]` it was 109%; in that of `CC(C)[N+](C)(CCC(C(N)=O)(c1ccccc1)c1ccccc1)C(C)C` [Isopropamide iodide], 120%.
Regarding `CC(C)[N+](C)(CCC(C(N)=O)(c1ccccc1)c1ccccc1)C(C)C`, the cell viability (compound concentration: 3 uM) came out at 104%.
For the compound `C#C[C@]1(O)CC[C@H]2[C@@H]3CCC4=CC(=O)CC[C@]4(C)[C@H]3CC[C@@]21C` [Ethisterone], the cell viability (compound concentration: 3 uM) turned out to be 100.5 ± 0.44%.
In the case of `C#C[C@]1(O)CC[C@H]2[C@@H]3CCC4=CC(=O)CC[C@]4(C)[C@H]3CC[C@@]21C`, the cell viability (compound concentration: 3 uM) was 110%.
As to `C=CCN1CC[C@]23c4c5ccc(O)c4O[C@H]2/C(=N/NC(=O)c2ccccc2)CC[C@@]3(O)[C@H]1C5` [Naloxone benzoylhydrazone], the cell viability (compound concentration: 3 uM) was determined as 109%.
Same read-out and setting: in the case of `CC(C)CC(N(C)C)C1(c2ccc(Cl)cc2)CCC1` (stereo not drawn) [Sibutramine] it was 93.7 ± 9.4%.
